The test addresses T1, FLAG-tagged FAM188B (human) (UniProt Q4G0A6).
T1 sequence: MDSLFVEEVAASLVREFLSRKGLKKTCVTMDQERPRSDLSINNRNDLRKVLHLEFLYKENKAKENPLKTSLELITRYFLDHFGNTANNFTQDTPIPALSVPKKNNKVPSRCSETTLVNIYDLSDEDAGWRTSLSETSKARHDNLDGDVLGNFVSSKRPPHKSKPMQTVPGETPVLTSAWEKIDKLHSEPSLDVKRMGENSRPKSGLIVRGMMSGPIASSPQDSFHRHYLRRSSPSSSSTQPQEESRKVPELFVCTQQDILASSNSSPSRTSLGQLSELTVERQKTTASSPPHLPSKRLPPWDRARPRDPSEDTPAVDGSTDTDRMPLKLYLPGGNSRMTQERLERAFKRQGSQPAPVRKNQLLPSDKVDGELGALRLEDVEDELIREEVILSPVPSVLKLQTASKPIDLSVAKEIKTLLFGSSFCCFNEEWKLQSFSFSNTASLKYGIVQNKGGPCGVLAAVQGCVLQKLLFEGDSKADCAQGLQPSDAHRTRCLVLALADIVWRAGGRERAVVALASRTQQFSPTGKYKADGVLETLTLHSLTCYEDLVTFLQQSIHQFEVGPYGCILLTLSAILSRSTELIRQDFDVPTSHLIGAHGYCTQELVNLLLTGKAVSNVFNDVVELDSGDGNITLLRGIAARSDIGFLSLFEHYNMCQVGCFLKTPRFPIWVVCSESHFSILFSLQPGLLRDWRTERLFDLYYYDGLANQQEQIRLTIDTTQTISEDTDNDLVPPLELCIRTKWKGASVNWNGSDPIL
Put plainly: affinity purification with mass spectrometry; FLAG-FAM188B overexpressed in HEK-293 cells, immunoprecipitated with anti-FLAG-M2 agarose affinity gel, resolved on SDS-PAGE, LC/MS-MS.

No constants are given. Whether binding was seen depends on the method and setting. In cells and extracts the contact can be indirect. Here binding means that the protein was enriched with, or labelled near, the bait; the list need not be complete. Tags and fused reporters may be left off the sequences shown.

On to “USP7 (from UniProt Q93009 1-1102) (enzyme)”, for which the binding result was “binds”.

p53 (from UniProt P04637 1-393): the binding result is given as “binds”.

Source of the values: PMC5967306.
